Experimental data reported in PubChem BioAssay AID588497 (NMMLSC, 2011).
The whole screen tested about 360,000 compounds, of which about 780 (0.22%) were called active. The shares of active, inactive and inconclusive entries below differ from those in the screen. Cut-off read from the data, not from the text of the source: active = inhibition above about 35% (passing the limit was not always enough); inconclusive = no clear call, values can overlap the other calls.

The molecules below were run on Botulinum neurotoxin type F light chain protease (Clostridium botulinum) (assay: BoNT/F light chain protease inhibitors, primary screen, biochemical, flow cytometry, MLPCN library (AID 588497; note: plate controls were buffer without enzyme for full effect and enzyme alone for no effect)). Conditions: Multiplex microsphere protease cleavage assay, at 10 µM, stronger effect = higher value.

Compound	inhibition
Brc1cccc(CNn2cnnc2)c1	inconclusive: -9.5%
COC(=O)/C=c1\sc2n(c1=O)C(C)=CC(C)(C)N=2	inactive: 1.5%
COc1ccc2c(c1)cc(C(=O)O)n2C	inconclusive: -2.7%
Cc1ccc(-c2[nH]ncc2/C=N/n2c(C)nc3ccccc3c2=O)cc1	inconclusive: 11.8%
COc1ccc(C(=O)Nc2ccccc2C(=O)Nc2ccccn2)cc1	inconclusive: 8.1%
Cc1ccccc1CC(=O)NCCN1CCOCC1	inconclusive: 4.6%
CCN1C(=O)[C@H]2[C@@H](c3ccc(-c4ccc(OC)cc4)cc3)N[C@@](CC(C)C)(C(=O)OC)[C@H]2C1=O	inactive: -8.8%
CCN(CC)C(=O)[C@H]1CC(CC(=O)NC(C)(C)C)C(=O)N2CCc3c([nH]c4ccccc34)[C@]12C (some centres undefined)	inactive: -0.7%
C=CCOc1ccc(/C=C/C(=O)OCC(=O)N2CCCc3ccccc32)cc1	inconclusive: -9.8%
CCOC(=O)c1cc2c(=O)[nH]ccc2nc1C(F)(F)F	inconclusive: 148%
Cc1cccc(-c2nnc3sc(-c4ccccc4)nn23)c1	inactive: 7.5%
CC(=O)NCCc1c[nH]c2ccc(OCc3ccccc3)cc12	inconclusive: 22.8%
O=C(NC1CS(=O)(=O)CC1NCc1ccco1)c1ccccc1 (centres undefined)	inconclusive: -24.1%
Nc1nnc(CSCc2ccccc2)s1	inconclusive: 18.4%
CCCOc1cc(N(CC)CC)ccc1/C=C(/C#N)c1nc2ccc(C)cc2[nH]1	active: 44.7%
O=C(Nc1ccncc1)c1ccc(N2CCCC2=O)cc1	inconclusive: -391%
O=C(Nc1nc2ccccc2c(=O)s1)c1ccco1	inconclusive: 53.8%
Cc1nc(-c2nc(-c3c(C(=O)NNC(=O)c4ccc(Cl)cc4)noc3C)cs2)cs1	inconclusive: 55.1%
Cc1cc(C)c2c(CN3CCCCC3)cc(=O)oc2c1	inconclusive: 12%
NC(c1ccccc1)c1cccnc1 (centres undefined)	inconclusive: 44.6%
Cc1nn(Cc2ccc(C(=O)NN)o2)c(C)c1Cl	inconclusive: 2.6%
O=C(OC1CSc2nc3ccccc3n2C1)c1ccco1 (centres undefined)	inactive: -0.3%
Nc1ccn([C@@H]2O[C@H](CNCc3ccc(C#CCCO)cc3)[C@@H](O)[C@H]2O)c(=O)n1	inactive: -2.9%
O=C(COC(=O)c1cccc(OC(F)F)c1)Nc1cc(S(=O)(=O)N2CCCC2)ccc1Cl	inactive: 0.5%

Compound	inhibition
COCc1cc(C)nc(SC)c1C#N	inactive: 0.5%
COCCSc1nc2sc3c(c2c(=O)n1-c1ccccc1)CCN(C)C3	inactive: 5.9%
CN1C2CC(OC(=O)C(CO)c3ccccc3)CC1C1OC12 (centres undefined)	inconclusive: -7.6%
Cn1c(O)c(N=NC(=O)CNC(=O)c2ccccc2)c2cc(Br)ccc21	inactive: -1%
Cc1ccc(/C=C2\SC(=S)N(CC3CCCO3)C2=O)o1 (centres undefined)	inconclusive: 5.3%
OC(c1ccc(F)c(F)c1)c1nc(-c2cccc3cccnc23)cs1 (centres undefined)	inactive: 2.5%
CN(C)S(=O)(=O)c1ccc(N2CCCC2)c(C(=O)N2CCC(C(N)=O)CC2)c1	inconclusive: 1%
Cc1cc(N2CCN(C)CC2)nc2ccc(NC(=S)N3CCN(c4ccc(F)cc4)CC3)cc12	inactive: -5%
CC(NC(=O)C1CCCC1)c1ccc2c(c1)OCCO2 (centres undefined)	inconclusive: 7.1%
CS/C(N)=N/S(=O)(=O)c1ccc(NC(C)=O)cc1	inconclusive: -16.5%
O=C(N/N=C\c1ccc([N+](=O)[O-])o1)c1cncc(Br)c1	inconclusive: -2.2%
COc1cc(OC)cc(-c2c(-c3ccc(F)cc3)c3cc(-c4cccc5[nH]ccc45)ccc3n2C)c1	inactive: 7.7%
CCOc1ccc(Nc2nc3ccccc3n2C)cc1	inconclusive: -6%
O=C(Nc1ccc(N2CCOCC2)cc1Cl)C1CCN(C(=O)OCc2ccccc2)CC1	inconclusive: 7.3%
C/C(=N/OC(=O)c1ccc(C(F)(F)F)cc1)c1oc(C)nc1C	inconclusive: -0.5%
Cc1ccc(Cl)cc1NC(=O)COC(=O)C1CCCCC1	inconclusive: 3.2%
CC(=O)Nc1sc(NC(=O)c2ccc(C)cc2)nc1-c1cccs1	inconclusive: 5%
CCc1ccc(OCCOCCN2CCN(C)CC2)cc1	inconclusive: -18.1%
Fc1ccc(Nc2nc(N/N=C/c3ccco3)nc(N3CCCCC3)n2)cc1	inactive: -2%
O=C(CCNC(=O)c1ccc(Br)cc1)NCc1cccnc1	inconclusive: -4.8%
CCCc1nnc(NC(=O)CC(C)c2ccccc2)s1 (centres undefined)	inconclusive: 2.7%
C/C(=N\O)C(C)(C)Nc1ccccc1F	inconclusive: 13%
COc1ccc(CN(CC(=O)NCC2CCCO2)C(=O)CNS(=O)(=O)c2ccccc2)cc1 (centres undefined)	inactive: -16.2%
N#C/C(=C/Nc1ccccc1F)S(=O)(=O)c1ccc(Cl)cc1	inconclusive: -9.9%

Compound	inhibition
CC(=NNC(=S)N1CC2CCC(CC2)C1)c1ccncn1	active: 59.1%
Cc1nc(NC(=O)/C=C/c2ccccc2)sc1C(=O)Nc1ccc(Cl)cc1	inactive: -1.6%
Cc1cccc(NC(=O)CCCCC(=O)Nc2cccc(C)c2)c1	inconclusive: 38.3%
COCCN(C)Cc1nc(C(c2ccccc2)c2ccccc2)no1	inconclusive: -42.4%
Cc1cccc(OCCN2CCOCC2)c1C	inconclusive: -11.6%
O=C(C1CCC(=O)N1Cc1ccccc1Cl)N1CCN(c2ccc(F)cc2)CC1 (centres undefined)	inactive: -2.4%
CCOc1ccc(S(=O)(=O)NN=C(C)c2cccnc2)cc1	inconclusive: -14.6%
O=C(C(c1ccccc1)c1ccccc1)N1CC[C@@]2(O)CCCC[C@H]2C1	inconclusive: 16.7%
COc1cc(C(=O)Nc2scc(-c3ccc(C)cc3)c2C(=O)O)cc(OC)c1OC	inconclusive: -35%
CCOC(=O)/C(=N\Nc1ccccc1)P(=O)(c1ccccc1)c1ccccc1	inconclusive: 30.2%
CCn1c(SCC(=O)Nc2ccccc2)nc2ccccc2c1=O	inconclusive: 14.5%
CC(=O)C1=C(O)C(=O)N(c2ccc(Br)cc2)C1c1cccc([N+](=O)[O-])c1 (centres undefined)	inconclusive: -22.6%
CC(=O)c1ccc(NC(=S)N2CCN(CCO)CC2)cc1	inconclusive: 10.5%
O=C(CN1C(=O)NC2(CCCCC2)C1=O)Nc1cc(C(F)(F)F)ccc1N1CCOCC1	inconclusive: 4.6%
O=C(O)c1cccc(Nc2ccc3nonc3c2[N+](=O)[O-])c1	inconclusive: -8.6%
CCc1nc2ccc(C(=O)Nc3ccc(Cl)c(Cl)c3)cn2c1N(C)Cc1ccc(OC)cc1	inactive: 1.8%
O=C1OCC(c2ccc(Cl)s2)=C1c1ccccc1[N+](=O)[O-]	inconclusive: 18.4%
Cc1cccc(N2C(=O)N(c3ccccc3C)C3CS(=O)(=O)CC32)c1 (centres undefined)	inconclusive: -18.5%
CCCOc1ccccc1C(=O)N1CCNC(=O)C1CC(=O)OC(C)C (centres undefined)	inactive: -22.8%
CCCCC(=O)N/N=C/c1c(O)n(CCC2=CCCCC2)c(=O)[nH]c1=O	inconclusive: -5.9%
CCCc1nc2c([nH]1)c(=O)n(C)c(=O)n2C	inconclusive: -8.2%
COc1cccc(OC)c1C(=O)Nc1ccncc1	inconclusive: -103%
CC1(C)CC(NC(=O)C23CCC(C)(C2Br)C3(C)C)CC(C)(C)N1 (centres undefined)	active: 34.6%
Clc1ccccc1N1CCN(Cc2c[nH]c3ccccc23)CC1	inconclusive: -21.6%

Among those listed so far, four contain a thiophene ring, fused or not.
Compound	inhibition
COCCSc1nc2sc3c(c2c(=O)n1-c1ccccc1)CCN(C)C3	inactive: 5.9%
CC(=O)Nc1sc(NC(=O)c2ccc(C)cc2)nc1-c1cccs1	inconclusive: 5%
COc1cc(C(=O)Nc2scc(-c3ccc(C)cc3)c2C(=O)O)cc(OC)c1OC	inconclusive: -35%
O=C1OCC(c2ccc(Cl)s2)=C1c1ccccc1[N+](=O)[O-]	inconclusive: 18.4%

(continued)

Compound	inhibition
CN1C(=O)CCC1(O)c1ccccc1 (centres undefined)	inconclusive: -10%
CCc1ccc(C(C)NC(=O)C2CCCO2)cc1 (centres undefined)	inconclusive: -25.9%
N=c1n(CCCOc2ccccc2Cl)c2ccccc2n1CC(N)=O	inactive: -7.5%
COc1ccc(CCNC(=O)CN(Cc2ccc(Cl)cc2)S(C)(=O)=O)cc1	inconclusive: 5.9%
CC(O)C(O)C(O)C(O)/C=N/NC(=O)c1ccccc1 (centres undefined)	inactive: -1.1%
CCCCNC(=O)Nc1ccccc1CC	inconclusive: 15.4%
Nc1nnc(Cc2cccc(Br)c2)s1	inconclusive: -33.4%
Cc1cccc(NC(=O)C2CC(=O)n3ncnc3N2)c1 (centres undefined)	inconclusive: -51.6%
CC(=NNC(=S)SCc1ccccc1)c1ccccn1	active: 83.1%
CCc1ccc(C(=O)CCC(=O)Nc2cccc(S(=O)(=O)N3CCCCC3)c2)cc1	inconclusive: 3.3%
COc1ccc(OC)c(CN2CCN(S(=O)(=O)c3ccccc3)CC2)c1	inconclusive: -102%
O=C(/C=C/c1ccc(NC(=O)c2ccccc2-c2ccccc2C(=O)O)cc1)c1ccccc1	inconclusive: -16.2%
CNC(=O)c1cc(S(=O)(=O)Nc2ccc3c(c2)OCCO3)ccc1C	inconclusive: 5.7%
CN1C(=O)C(=O)/C(=C(/O)c2ccc(Br)cc2)C1c1cccc([N+](=O)[O-])c1 (centres undefined)	inconclusive: 9.2%
Cc1ccc2c(=O)cc(C(=O)NC3CCS(=O)(=O)C3)oc2c1C (centres undefined)	inactive: 4.3%
CCc1cc(-c2n[nH]c(C)c2-c2ccccc2Cl)c(O)cc1OC	inconclusive: -61.9%
COc1cc(/C=N/n2nnnc2N)ccc1OCC#N	inconclusive: 19.1%
COc1ccc(CCNC(=O)C2CCCN(S(C)(=O)=O)C2)cc1 (centres undefined)	inconclusive: 20.9%
S=C(NN=C(c1ccccc1)c1ccccn1)N(Cc1ccccn1)Cc1ccccn1	active: 42.5%
N/C(COc1cc(Cl)cc(Cl)c1)=N\O	inconclusive: -126%
CSc1nccc(-c2c(-c3ccc(Cl)cc3)noc2C)n1	inconclusive: -4.1%
COc1cccc(N2CCN(C(=S)Nc3ccccc3OC)CC2)c1	inconclusive: -16.8%
